Out of some 52,000 sequences screened, about 210 (0.4%) were called active.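 Rule for the calls: active = gene whose silencing raises cell survival under the drug, median off-target-corrected z-score across its silencing RNAs 2 or more; inactive = the rest.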 The list shows a part of the results.
Assay: Resistance to Poly (ADP-Ribose) Polymerase inhibitor: Gene Identification via Genome-wide siRNA Screen
Settings: mouse BRCA2 R2336H ES cells, olaparib, CellTiter-Glo viability; stronger effect = higher value
Summary of the method: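 Genome-wide siRNA screen (3 siRNAs/gene, 20 nM) in mouse ES cells carrying hypomorphic BRCA2 R2336H; olaparib 500 nM added 48 h post-transfection, CellTiter-Glo viability 72 h later. Normalized to plate-median negative control; MAD z-scores, gene median, seed-adjusted.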

Sequence	z-score
GCGACUAGAGAUCAAUUGCTT against Banp	inactive: 0.58
GCGGUGCCAAAGGUAUUAATT against Rad51ap1	inactive: 0.37
GGGUGUGAGUGAUUAUGAATT against 1500019O16Rik	inactive: 0.398
GCCGAAUAUUUCUACCUAATT against Fosl2	inactive: -0.535
GCCAUCGUCUACCUAUGACTT against Olfr358	inactive: 0.116
GGUUGUUGGACCAGUGUAUTT against Ranbp6	inactive: -0.168
CGGCUCAUCCGAUAUAUCCTT against Hcn2	inactive: 2.63
GGCGGCACGUUCACCUAAATT against Rnps1	inactive: 0.0506
GGAAAGAACUGAGUUCUCGTT against Ddx19	inactive: -0.543
GAGCUUCUGGCUGAGAUAATT against Espn	inactive: -2.24
GGAAGACACAGUUUCUCUUTT against Hs6st3	inactive: 0.764
GGGAUGAGAAAGUUCAGUUTT against Cox4i1	inactive: -1.24
CCAUGAGACCUCUGAUAAATT against 5730596K20Rik	inactive: -0.418
GGAGAUUUGCUCCUUAGUGTT against Pcdhb19	inactive: 2.49
GCAUCGAUAGUAUACUGUGTT against Srr	inactive: -0.519
GGUUCUACGGUCCAAAGUUTT against Fetub	inactive: -2.12
GCGUGCAUAUCUUAGAAAUTT against Zfp51	inactive: -0.712
CGUAGAAGAAUCUGCAUCATT against Ccl28	inactive: 2.39
GGCUACGAGUCCUCUGAAGTT against 1810045K07Rik	inactive: -0.732
GGUGUUCCAGGUUAAAAUCTT against Kdelc1	inactive: -0.395
GCGUAUAGCAGAAAACAGGTT against 2210403B10Rik	inactive: 0.441
GCCCUGUAUUUUGAAUUACTT against Bmpr1b	inactive: -0.155

Sequence	z-score
GGCUCAUUGAGCACAUCAGTT against Zfpn1a5	inactive: 1.39
GUUCAUCAUUCGAAUCUGGTT against Kcnq5	inactive: 2.35
GGUAGAUUUUGAUGAAUUCTT against Caln1	inactive: 0.145
GGCCGGGCAUUCUAAAGAATT against C330029B10Rik	inactive: -0.879
GGCCGUAGGCAAUAUCUUATT against D930046M03	inactive: 0.285
GGUAUCACACUGGAAAGAATT against Zfp78	inactive: -0.155
CGCGAGGUCUUCGAAAGAATT against Siva	inactive: -2.53
UGUAACCAUGGUUACCGUGTT against Olfr1513	inactive: -0.767
GCUUUGCACAAAACACUUATT against LOC545471	inactive: -0.00656
GGAAGAGGGUUAAGAAAACTT against Nnat	inactive: 1.32
CCUUACGAAAUAAGGUAUUTT against Loxl3	inactive: -0.0986
GCACGUCCUCGAUCUCUGUTT against Extl3	inactive: 0.464
GGUGACAAAACCAUUUCCUTT against Olfr810	inactive: 0.351
CCUAUAUUCGGAGUGCAGUTT against Cops2	inactive: -2.23
GGCCAAGAACCGCUUUCACTT against Hesx1	inactive: 0.713
CAGGAAAUUAGCGAUGUGGTT against Abl2	inactive: -0.771
GCAGUCUUCCCUCAUCCUUTT against Cox8a	inactive: 0.216
GGGAGUUUCAUUUUGAAAATT against 3830408P04Rik	inactive: -0.219
GGACAAUCUUUACUUCCUATT against Chx10	inactive: -1.28
GCCUGCUCUUGAAGGAUAATT against Ptpn9	active: 1.13
GCUUGUUCUCCGAAAAUGGTT against G431001I09Rik	inactive: 0.677
GCCAAAUUCUGGCUUCUUCTT against Cdc26	inactive: 0.813

Exported as a markdown table: part of the list above

| Sequence | z-score |
| --- | --- |
| GGCUCAUUGAGCACAUCAGTT against Zfpn1a5 | inactive: 1.39 |
| GGUAGAUUUUGAUGAAUUCTT against Caln1 | inactive: 0.145 |
| GGCCGGGCAUUCUAAAGAATT against C330029B10Rik | inactive: -0.879 |
| GGCCGUAGGCAAUAUCUUATT against D930046M03 | inactive: 0.285 |
| CGCGAGGUCUUCGAAAGAATT against Siva | inactive: -2.53 |
| GGAAGAGGGUUAAGAAAACTT against Nnat | inactive: 1.32 |
| CCUUACGAAAUAAGGUAUUTT against Loxl3 | inactive: -0.0986 |
| GCACGUCCUCGAUCUCUGUTT against Extl3 | inactive: 0.464 |
| GGCCAAGAACCGCUUUCACTT against Hesx1 | inactive: 0.713 |
| CAGGAAAUUAGCGAUGUGGTT against Abl2 | inactive: -0.771 |
| GCAGUCUUCCCUCAUCCUUTT against Cox8a | inactive: 0.216 |
| GGGAGUUUCAUUUUGAAAATT against 3830408P04Rik | inactive: -0.219 |
| GGACAAUCUUUACUUCCUATT against Chx10 | inactive: -1.28 |
| GCCUGCUCUUGAAGGAUAATT against Ptpn9 | active: 1.13 |
| GCUUGUUCUCCGAAAAUGGTT against G431001I09Rik | inactive: 0.677 |

(cont.)

Sequence	z-score
GCUGUAGCUCCAACAAUUUTT against Olfr1442	inactive: -1.31
GGAGAACCAUAAUAAGAGUTT against Tnfrsf26	inactive: -0.801
GCUAUUACACCAGUUUUAATT against D3Jfr1	inactive: 0.419
GGAGACUUUGACCAAAUUATT against LOC433762	inactive: 0.0273
GGAGCCACAGAACAUAUUATT against Pinx1	inactive: 0.122
CCGCCUGGAUAAUUAUGAUTT against Cltc	inactive: 0.602
GCCACAUUGGAAGUAUCGATT against Pdk4	inactive: 0.295
GCUACCCUGAAUGCAACGUTT against Slc13a5	inactive: -0.342
GGAACUGGAAAUCUCAGAGTT against Pcdh12	inactive: -0.0238
GGAAUCUUCCAGAACUAAATT against Rufy1	inactive: 0.566
GACUUCUCUAGUCUGCCGGTT against 5730557B15Rik	inactive: -1.23
GCACGUAUGCUCUUUCUCATT against Pigw	inactive: 1.09
GGAGAGUAAAACCAAUACATT against BC008163	inactive: 2.93
CGUGUGGUUAGUACCUAAUTT against Grin2c	inactive: 2.04
CCUUCAACUUCCAUUUUUCTT against Ugt2b36	inactive: 0.239
GGAUAUGCUUAGAUAGACCTT against Galk2	inactive: -0.124
GGAAUAAAUAUUCCUCCUATT against 2810028N01Rik	inactive: -1.45
GCUCGAAUGUGUAAAGACGTT against Csnk1e	inactive: 0.0731
GGCUGUUUUCUAUCCUAGGTT against Cd207	inactive: 1.04
GGAAUAUUCUCUCAUCACATT against 1810037K07Rik	inactive: -0.985
CGAGGUCAUUCACUCUCGUTT against Hapln2	inactive: 0.303
GGUACCCUUAUUGGAUAUUTT against Slc30a5	inactive: 0.755
